PubChem BioAssay AID1508600 (Functional Genomics Laboratory (NCATS/FGL), 2020)
Hit rate of the full screen: of about 53,000 sequences, about 3,700 (7%) were called active.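 How the source made its calls: active means gene knockdowns whose robust z-score for IL-1 alpha signal is at least 2 or at most -2, so actives lie on both sides; inactive means the rest.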 This is one part of the list.

Assay: Components of the Cytosolic LPS Sensing Pathway: Gene Identification via Genome-wide siRNA Screen;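 further: robust z of the log signal after scaling to non-targeting control siRNA wells of the plate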
Details: RAW264.7 macrophages, IL-1a HTRF, actives lie on both sides, screened at 100 nM (by protocol), cells primed 5 h with Pam3CSK4 first
Summary of the method: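 RAW264.7; siRNA 100 nM final, RNAiMAX, 48h 37 degrees C; Pam3CSK4 5 h; LipidA + TransIT-TKO 24 h; IL-1a HTRF; CellTiter-Glo viability; robust z vs negative-control median.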

Sequence | z-score
GCUAGAUGCUCGGAUCCAGTT against Ei24 | inactive: -0.873
GGCUGUUAGAGGAAGAGAUTT against Ube3b | inactive: 1.64
GGAAAUAACAGGCUUUUUGTT against Egfr | inactive: 0.659
GCAGAAUGGUAAAUCCGAUTT against Mc5r | inactive: 0.137
GGUAGUGUUCAUUGAGGAATT against Oas1d | inactive: -0.282
CGUUUGAUACCAAAGAUUUTT against Onecut3 | inactive: -1.12
GGCACAUACGCUAUGAAGCTT against Prl2c5 | inactive: -0.0959
GGAGAAAAGGGUGCUGAAGTT against Ybx3 | active: 2.85
CCCGUAUGGAUGUGGUAACTT against Tmem239 | inactive: -1.39
GCACCGGGAUUUGGUGCAATT against Tut1 | inactive: 0.937
GCCUGUACAGACUACGCAGTT against Ifi27l2a | inactive: 0.0257
GGGAAAAUCAAACAAAACCTT against Tfap4 | inactive: -0.998
GGUUUCAUCAAAGUGCAUUTT against Rassf5 | inactive: -0.648
GGUUGUCUCUCAGUAUUCATT against Cct4 | inactive: -0.722
GGAUAGCAUCCAUUACUUCTT against Lrrc75b | inactive: -1.21
GGUUGUGUUGGAGGUUAAGTT against Snta1 | inactive: 0.721
GGAAUCUAUGAACAUGUUUTT against Pcdh12 | inactive: -0.433
GGCUCGAUUACUGAGUACATT against Bnip2 | inactive: 0.884
GGUAGAAUGUGUGAUACCCTT against Rogdi | inactive: 0.205
GGUGAAAGCUUUGAUUCUGTT against Zbtb20 | inactive: -0.564
GGAAAUACGGCUUCAUCUATT against Cyp26a1 | inactive: 0.935
CCCGAUUAGGUGUUGAUAUTT against Slc25a31 | inactive: 0.425
GGCCAUCCAGAAUUACAUGTT against Vash2 | inactive: 1.08

Sequence | z-score
GCAUUGUUUCUCUGGUAAUTT against Cd200 | inactive: -1.11
GCAAAGCUUAAAAGUGAAGTT against Tmem203 | inactive: -1.68
GGAGACAUGCAAUGAACUUTT against Ica1l | inactive: 1.02
GGACAUAGUGUGAUAUCUUTT against Man1c1 | inactive: 0.128
GGACAAGAAAAUGCUAUCATT against Pcsk1 | inactive: 0.154
CCCGAGUAACUUUUAUAUCTT against Tdrd1 | inactive: 0.769
GGAAAAAUUUAAAGAGGUCTT against Dnajb4 | inactive: -0.0646
CCUGACGAAAAUGUUUUAATT against Lrp12 | inactive: 1.04
GGUCCUUGUACAACCACCCTT against Acd | inactive: 0.516
CGUCUGAACACUUCAAGACTT against Vamp8 | inactive: 0.094
GCUCAAUGGCUACACGGAUTT against Ace | inactive: 0.0665
GGCAGUUUUGCAUGUGUGATT against Zfp654 | active: -2.23
GGUGGGAAUUACCUUACUUTT against Phf20 | inactive: 0.905
GCUUGUAGACUUCCUCCUGTT against Olfr524 | inactive: 0.288
GGUUUUCCACUCUUAUGGCTT against Vmn1r49 | inactive: -1.24
GGAGGAGACUGAAAUUCCATT against Cavin3 | inactive: 0.0827
CCAACUUUUAGUCUAGAAATT against Mat2a | inactive: 0.766
GCUACUUGGAGUCUAUUUGTT against C1ql3 | inactive: 0.48
GGAAAAGUUUCCACAAACCTT against Iqce | inactive: -0.762
CCUAUGGCCAUUAUGAGCCTT against Rcn3 | inactive: -1.15
GGAUUUCAUUAAGCUGAAGTT against Macrod1 | inactive: -1.47
GGUGGAUUUCUACUAUGAUTT against Abcf3 | inactive: -0.124
CCUGAAAUGCUAAGACUACTT against Gm5142 | inactive: 1.15

A second format for some results above:

| Sequence | z-score |
| --- | --- |
| GGAAAAAUUUAAAGAGGUCTT against Dnajb4 | inactive: -0.0646 |
| GCUACUUGGAGUCUAUUUGTT against C1ql3 | inactive: 0.48 |

(cont.)

Sequence | z-score
GGAUGCAGAGACCUAUUUCTT against Cacng5 | inactive: -0.158
GGCUUUAAGAACUGGGCCCTT against Clec10a | inactive: 0.258
GCAUUGGCUGUACUACUAUTT against Psg18 | inactive: 0.287
GAGCAUCUGUGUAGAAGUGTT against Thrsp | inactive: 0.786
GGCAAAUUAGAGGAAAAGUTT against Zfp354a | inactive: 0.118
GGCCACCGUUCAAAAAAUUTT against Dctn5 | inactive: -0.226
GGACCAUGCACGAUACUCUTT against Foxn1 | inactive: 0.465
GGCAAAUCAAGCAGAAAAUTT against Ncor1 | inactive: 0.739
GGAAAAAGAGUCCUUCAUGTT against Minar2 | inactive: 1.19
GGCAUCACUUUCUUUCCUUTT against Abhd10 | inactive: -1.2
GGUAAUUGAAAGAGGAGAGTT against Vamp4 | inactive: 0.38
GGUGCCUGACCAAAAAGGATT against Samd12 | inactive: 1.43
CCCGUUGUAUACAAAUACCTT against Tmem41b | inactive: 0.579
GGAACUGAAAAAGAAAACATT against Ist1 | inactive: -1.04
GGGAUGUGUGAAUAAAAAATT against Elovl7 | inactive: -0.292
CGCAUUCUACUCCUAUGAGTT against Pdcd2 | inactive: 1.16
GCCCUACCAAUACUACAGUTT against Lamc3 | inactive: -0.0165
GGAAACUUUUGGAAGACUATT against Jmjd6 | active: 2.02
GGCCGGUUAGCUAAUCAGATT against Armc10 | active: 2.03
GGAAAAAUGCUACAUACAATT against Slc15a2 | inactive: 0.864
CGACCCAAUCGAUGUUUGUTT against Ppa1 | inactive: -0.281
CCACCCUCUUCAUAACAGUTT against Med27 | inactive: -0.82
GGAGAACAAGAUCCUGGAGTT against Ccdc39 | inactive: 1.73
